Reference: paper PMC3989330

Target: T1, CYLD (UniProt Q66H62)
T1 sequence: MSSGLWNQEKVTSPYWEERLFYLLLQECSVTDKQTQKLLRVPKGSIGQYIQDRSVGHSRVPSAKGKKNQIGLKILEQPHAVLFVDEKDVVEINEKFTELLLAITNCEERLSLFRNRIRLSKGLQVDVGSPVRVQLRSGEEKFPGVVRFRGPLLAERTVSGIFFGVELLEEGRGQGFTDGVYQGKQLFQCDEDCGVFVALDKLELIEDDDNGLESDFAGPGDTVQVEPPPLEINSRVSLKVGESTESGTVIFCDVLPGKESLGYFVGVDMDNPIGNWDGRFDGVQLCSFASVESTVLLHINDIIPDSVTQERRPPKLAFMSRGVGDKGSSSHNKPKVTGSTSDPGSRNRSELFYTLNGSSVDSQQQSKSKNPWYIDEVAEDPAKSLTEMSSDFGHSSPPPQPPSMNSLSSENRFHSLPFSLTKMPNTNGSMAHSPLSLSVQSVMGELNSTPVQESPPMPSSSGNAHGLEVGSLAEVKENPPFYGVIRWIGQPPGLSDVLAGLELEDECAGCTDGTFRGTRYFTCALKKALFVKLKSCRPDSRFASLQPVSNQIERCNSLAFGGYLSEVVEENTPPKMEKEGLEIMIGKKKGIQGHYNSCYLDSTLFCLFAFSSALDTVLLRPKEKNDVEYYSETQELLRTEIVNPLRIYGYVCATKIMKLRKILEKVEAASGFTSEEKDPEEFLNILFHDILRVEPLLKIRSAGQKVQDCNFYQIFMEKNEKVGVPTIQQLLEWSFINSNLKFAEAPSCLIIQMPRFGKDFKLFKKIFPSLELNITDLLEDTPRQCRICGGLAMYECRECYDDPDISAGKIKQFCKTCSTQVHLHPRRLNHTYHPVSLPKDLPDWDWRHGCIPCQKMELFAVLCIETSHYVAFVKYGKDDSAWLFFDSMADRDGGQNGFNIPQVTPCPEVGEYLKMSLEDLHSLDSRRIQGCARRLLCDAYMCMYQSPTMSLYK
Assay: co-IP; CYLD immunoprecipitated with CYLD antibody from solubilized PSD fractions; Western blot with antibodies for CYLD or CaMKII; control: beads without CYLD antibody

Substance: CaMKII (enzyme)
- binding: binds

These are yes or no findings as the source states them, for the method shown. In cells and extracts the contact can be indirect. Binding calls can cover weak binding; strength is not graded here.
